According to PMC6983240:
Results are given in words; binding and its absence hold for the method and conditions named. Binding seen in cells or lysates may run through a third protein. Some results given as binding are weak or reduced against the parent protein; the word gives no strength. For part of these data: Sequences can lack the tags named with a protein.

Protein sequences, listed by entry. Tags and fused reporters are not part of them. Residues count along the entry.
UniProt P48721, residues 47-679: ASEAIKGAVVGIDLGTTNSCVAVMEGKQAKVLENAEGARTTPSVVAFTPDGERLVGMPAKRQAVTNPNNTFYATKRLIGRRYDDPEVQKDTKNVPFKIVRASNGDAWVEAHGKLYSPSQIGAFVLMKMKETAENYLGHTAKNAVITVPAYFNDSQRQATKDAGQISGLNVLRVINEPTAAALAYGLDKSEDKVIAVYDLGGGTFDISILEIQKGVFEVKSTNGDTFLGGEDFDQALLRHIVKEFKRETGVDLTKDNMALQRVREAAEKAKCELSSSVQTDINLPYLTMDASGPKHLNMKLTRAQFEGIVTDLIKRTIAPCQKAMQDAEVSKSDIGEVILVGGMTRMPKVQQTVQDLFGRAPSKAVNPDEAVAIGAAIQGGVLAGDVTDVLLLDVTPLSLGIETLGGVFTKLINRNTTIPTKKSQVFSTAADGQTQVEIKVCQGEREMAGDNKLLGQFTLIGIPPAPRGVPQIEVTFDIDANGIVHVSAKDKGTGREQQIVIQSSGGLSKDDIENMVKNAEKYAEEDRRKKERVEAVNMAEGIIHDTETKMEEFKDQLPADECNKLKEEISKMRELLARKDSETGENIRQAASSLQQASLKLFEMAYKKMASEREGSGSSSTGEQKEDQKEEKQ
UniProt P03889: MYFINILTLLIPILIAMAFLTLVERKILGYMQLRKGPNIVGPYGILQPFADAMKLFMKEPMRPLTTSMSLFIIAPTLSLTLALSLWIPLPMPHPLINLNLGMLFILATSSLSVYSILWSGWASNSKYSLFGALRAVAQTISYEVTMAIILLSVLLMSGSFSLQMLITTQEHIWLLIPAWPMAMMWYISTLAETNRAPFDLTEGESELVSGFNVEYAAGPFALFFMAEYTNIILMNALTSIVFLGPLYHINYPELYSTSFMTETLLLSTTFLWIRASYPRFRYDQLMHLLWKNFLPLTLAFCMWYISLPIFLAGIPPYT

T1: Flag-DJ-1 (from plasmid pFlag-DJ-1) (UniProt O88767)
T1 sequence: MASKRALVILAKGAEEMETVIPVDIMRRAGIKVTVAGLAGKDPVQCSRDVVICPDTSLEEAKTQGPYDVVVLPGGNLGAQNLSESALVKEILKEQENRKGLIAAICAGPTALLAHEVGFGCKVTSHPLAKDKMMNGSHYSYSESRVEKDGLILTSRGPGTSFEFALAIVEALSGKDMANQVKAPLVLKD

T2: DJ-1 (rat (endogenous in H9c2)) (UniProt O88767)
T2 sequence: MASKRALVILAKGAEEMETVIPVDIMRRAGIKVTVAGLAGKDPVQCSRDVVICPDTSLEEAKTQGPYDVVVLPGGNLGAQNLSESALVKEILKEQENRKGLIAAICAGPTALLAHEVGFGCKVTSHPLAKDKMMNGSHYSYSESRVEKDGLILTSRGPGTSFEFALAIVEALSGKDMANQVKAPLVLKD


How the values were obtained:
[1] = biological target: T1, Flag-DJ-1 (from plasmid pFlag-DJ-1); test: co-IP; H9c2 mitochondrial lysates (H/R, HPC + H/R, pFlag-DJ-1 + H/R, each with or without LV-shGrp75 knock-down); IP with anti-DJ-1 antibody or IgG, blot with anti-NDUFA4 or anti-ND1
[2] = biological target: T2, DJ-1 (rat (endogenous in H9c2)); test: as above
[3] = biological target: glucose-regulated protein 75 (Grp75) (rat (endogenous in H9c2)) (UniProt P48721); test: co-IP; H9c2 whole-cell lysates (control, H/R, HPC + H/R); IP with anti-Grp75 antibody or IgG, blot with anti-DJ-1; lysis buffer 50 mM Tris HCl, 150 mM NaCl, 1 mM EDTA, 1% Triton X-100; 4 °C overnight

| binding [1] | binding [2] | binding [3] | Molecule |
| --- | --- | --- | --- |
| binds | binds | – | ND1 subunit of mitochondrial complex I (from UniProt P03889 1-318) |
| – | – | binds | DJ-1 (protein, UniProt O88767 1-189) MASKRALVILAKGAEEMETVIPVDIMRRAGIKVTVAGLAGKDPVQCSRDVVICPDTSLEEAKTQGPYDVVVLPGGNLGAQNLSESALVKEILKEQENRKGLIAAICAGPTALLAHEVGFGCKVTSHPLAKDKMMNGSHYSYSESRVEKDGLILTSRGPGTSFEFALAIVEALSGKDMANQVKAPLVLKD |
